# According to patent US12458651B2, “Compounds and their uses for alleviating menopause-associated symptoms” (ESTETRA SRL, priority 2018, dated 2025):
# Assays:
# post-menopausal women [1] = test: Dose-finding study: weekly frequency of moderate to severe VMS; type: in vivo
# Source text: To determine the Minimum Effective Dose (MED), firstly the selection criteria required that patients presented at least 7 moderate to severe VMS/day or at least 50 moderate to severe VMS/week in the week preceding randomization. Secondly, a placebo group was included in a double-blind fashion. Thirdly, the total patient number was such that statistical significance could be obtained between separate arms of the study. Fourthly, the absolute change from baseline in weekly frequency of moderate to severe VMS was taken into account. An analysis of covariance (ANCOVA) was performed based on the untransformed change in weekly frequency of moderate to severe VMS from baseline. Finally, the change in severity from baseline was evaluated. For this, the Severity Scoring System of VMS was documented by the subjects as follows: • a score of Mild (1) for a sensation of heat without sweating; • a score of Moderate (2) for a sensation of heat with sweating/the subject is able to continue activity; and • a score of Severe (3) fora sensation of heat with sweating/which causes cessation of activity.
# Enrolment was approximately 18 months. Individual subject participation was up to 27 weeks: up to 6 weeks pre-screening and washout, up to 4 weeks screening and run-in period, up to 91 days (13 weeks) of E4/placebo treatment followed by 2 weeks (14 days) of progestin therapy and a Follow up visit 1 week after completion of progestin therapy in non-hysterectomised subjects only.
# This was a prospective, multicentre, randomised, placebo-controlled, double-blinded, dose-finding study.
# Eligible subjects were hysterectomised and non-hysterectomised post-menopausal women aged 40 to 65 years, inclusive, presenting at least 7 moderate to severe hot flushes/day or at least 50 moderate to severe hot flushes/week.
# The subjects have met all of the following inclusion criteria at the randomization visit. These criteria were assessed during the screening period: • 1. Women aged 40 to 65 years, inclusive, presenting at least 7 moderate to severe hot flushes/day or at least 50 moderate to severe hot flushes/week in the week preceding randomization. • 2. Body Mass Index (BMI) between 18.0 and 35.0 kg/m^2, inclusive. • 3. […]
# In order to analyse the data recorded in this study, treatment groups have been compared using an ANCOVA (analysis of covariance) with respect to the change in weekly frequency of moderate to severe VMS from baseline to weeks 4 and 12. […]
# post-menopausal women [2] = test: Dose-finding study: hot flush weekly weighted score; type: in vivo
# Procedure: Further, the terms “Hot Flush Weekly Weighted Score”, as used herein, corresponds to a score taking into account frequency and severity which is calculated by using the severity score (as calculated above): [(1×No. of mild VMS)+(2×No. of moderate VMS)+(3×No. of severe VMS)] during a 7 day period.
# Such a weighted score was for example used by Notelovitz et al. (“Initial 17β-Estradiol Dose for Treating Vasomotor Symptoms”; Obstetrics and Gynaecology, Vol. 95(5), May 2000, p. 726-731). This score was used to generate the data included in Example 1 further below, under section A. c) “Hot Flush Weekly Weighted Score”.
structure (smiles),measurement,setting,value
"C[C@]12CC[C@@H]3c4ccc(O)cc4CC[C@H]3[C@@H]1[C@@H](O)[C@@H](O)[C@@H]2O [Estetrol, 1,3,5 (10)-estratrien-3,15alpha,16alpha,17beta-tetrol]","Relative change in weekly frequency of moderate to severe VMS, difference with placebo (including 2.5 mg and 5 mg): p_value","post-menopausal women [1]; 10.0 mg vs 0 mg, week 4",0.2615
same,"Relative change in weekly frequency of moderate to severe VMS, difference with placebo (including 2.5 mg and 5 mg): p_value","post-menopausal women [1]; 10.0 mg vs 0 mg, week 12",0.1798
same,"Relative change in weekly frequency of moderate to severe VMS, difference with placebo (including 2.5 mg and 5 mg): p_value","post-menopausal women [1]; 15.0 mg vs 0 mg, week 4",0.00218
same,"Relative change in weekly frequency of moderate to severe VMS, difference with placebo (including 2.5 mg and 5 mg): p_value","post-menopausal women [1]; 15.0 mg vs 0 mg, week 12",0.00099
same,"Relative change in weekly weighted score, differences with placebo: p_value","post-menopausal women [2]; 2.5 mg vs 0 mg, week 4",1.0000
same,"Relative change in weekly weighted score, differences with placebo: p_value","post-menopausal women [2]; 2.5 mg vs 0 mg, week 12",0.6744
same,"Relative change in weekly weighted score, differences with placebo: p_value","post-menopausal women [2]; 5.0 mg vs 0 mg, week 4",0.8833
same,"Relative change in weekly weighted score, differences with placebo: p_value","post-menopausal women [2]; 5.0 mg vs 0 mg, week 12",0.8871
same,"Relative change in hot flush weekly weighted score, difference with placebo (including 2.5 mg and 5 mg): p_value","post-menopausal women [2]; 10.0 mg vs 0 mg, week 4",0.4167
same,"Relative change in weekly weighted score, differences with placebo: p_value","post-menopausal women [2]; 10.0 mg vs 0 mg, week 4",0.6745
same,"Relative change in hot flush weekly weighted score, difference with placebo (including 2.5 mg and 5 mg): p_value","post-menopausal women [2]; 10.0 mg vs 0 mg, week 12",0.1404
same,"Relative change in weekly weighted score, differences with placebo: p_value","post-menopausal women [2]; 10.0 mg vs 0 mg, week 12",0.7861
same,"Relative change in hot flush weekly weighted score, difference with placebo (including 2.5 mg and 5 mg): p_value","post-menopausal women [2]; 15.0 mg vs 0 mg, week 4",0.00178
same,"Relative change in weekly weighted score, differences with placebo: p_value","post-menopausal women [2]; 15.0 mg vs 0 mg, week 4",0.0267
same,"Relative change in hot flush weekly weighted score, difference with placebo (including 2.5 mg and 5 mg): p_value","post-menopausal women [2]; 15.0 mg vs 0 mg, week 12",0.00097
same,"Relative change in weekly weighted score, differences with placebo: p_value","post-menopausal women [2]; 15.0 mg vs 0 mg, week 12",0.0276
